Measurements taken from PMC8060413.
No constants are given. Whether binding was seen depends on the method and setting. Some results given as binding are weak or reduced against the parent protein; the word gives no strength.

T1: Ssz1 C81S C86S (subunit of the cysteine RAC variants) (yeast) (UniProt P38788)
T1 sequence: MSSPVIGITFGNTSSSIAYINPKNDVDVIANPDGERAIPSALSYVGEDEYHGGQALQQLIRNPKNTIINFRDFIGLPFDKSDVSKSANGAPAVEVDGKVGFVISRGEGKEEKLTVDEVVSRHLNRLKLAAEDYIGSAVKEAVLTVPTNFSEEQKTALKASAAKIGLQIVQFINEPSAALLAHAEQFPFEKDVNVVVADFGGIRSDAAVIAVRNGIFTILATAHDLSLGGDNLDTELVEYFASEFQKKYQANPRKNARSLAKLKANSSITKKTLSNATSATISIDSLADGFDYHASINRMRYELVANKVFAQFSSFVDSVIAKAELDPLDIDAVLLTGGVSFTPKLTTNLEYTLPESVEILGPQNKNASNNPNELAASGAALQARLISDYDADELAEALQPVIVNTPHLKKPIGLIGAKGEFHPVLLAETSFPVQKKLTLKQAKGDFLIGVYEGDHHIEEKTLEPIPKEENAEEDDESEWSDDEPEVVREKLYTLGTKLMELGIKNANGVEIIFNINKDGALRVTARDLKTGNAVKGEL


Each binder was assayed against T1, Ssz1 C81S C86S (subunit of the cysteine RAC variants) (yeast) (assay: co-purification (Ni-IDA affinity, anion exchange, size exclusion); Ssz1 and Zuo1 co-expressed in E. coli; complex held on Ni-IDA by His6-SUMO on Ssz1, washed with 100 mM and 1 M KAc, eluted with 300 mM imidazole; His6-SUMO removed by Ulp1; then ResourceQ and HiLoad Superdex 200 in 40 mM HEPES pH 7.4, 100 mM KAc, 5 mM MgCl2, 5% glycerol).

binding	Binder
binds	Zuo1 C167S K351C S395C (protein, UniProt P32527 1-433) MFSLPTLTSDITVEVNSSATKTPFVRRPVEPVGKFFLQHAQRTLRNHTWSEFERIEAEKNVKTVDESNVDPDELLFDTELADEDLLTHDARDWKTADLYAAMGLSKLRFRATESQIIKAHRKQVVKYHPDKQSAAGGSLDQDGFFKIIQKAFETLTDSNKRAQYDSSDFVADVPPPKKGTDYDFYEAWGPVFEAEARFSKKTPIPSLGNKDSSKKEVEQFYAFWHRFDSWRTFEFLDEDVPDDSSNRDHKRYIERKNKAARDKKKTADNARLVKLVERAVSEDPRIKMFKEEEKKEKERRKWEREAGARAEAEAKAKAEAEAKAKAESEAKANASAKADKKKAKEAAKAACKKNKRAIRNSAKEADYFGDADKATTIDEQVGLIVDSLNDEELVCTADKIKANAAGAKEVLKESAKTIVDSGKLPSSLLSYFV
binds	Zuo1 C167S K363C S387C (protein, UniProt P32527 1-433) MFSLPTLTSDITVEVNSSATKTPFVRRPVEPVGKFFLQHAQRTLRNHTWSEFERIEAEKNVKTVDESNVDPDELLFDTELADEDLLTHDARDWKTADLYAAMGLSKLRFRATESQIIKAHRKQVVKYHPDKQSAAGGSLDQDGFFKIIQKAFETLTDSNKRAQYDSSDFVADVPPPKKGTDYDFYEAWGPVFEAEARFSKKTPIPSLGNKDSSKKEVEQFYAFWHRFDSWRTFEFLDEDVPDDSSNRDHKRYIERKNKAARDKKKTADNARLVKLVERAVSEDPRIKMFKEEEKKEKERRKWEREAGARAEAEAKAKAEAEAKAKAESEAKANASAKADKKKAKEAAKAAKKKNKRAIRNSACEADYFGDADKATTIDEQVGLIVDCLNDEELVSTADKIKANAAGAKEVLKESAKTIVDSGKLPSSLLSYFV
binds	Zuo1 C167S K351C T417C (protein, UniProt P32527 1-433) MFSLPTLTSDITVEVNSSATKTPFVRRPVEPVGKFFLQHAQRTLRNHTWSEFERIEAEKNVKTVDESNVDPDELLFDTELADEDLLTHDARDWKTADLYAAMGLSKLRFRATESQIIKAHRKQVVKYHPDKQSAAGGSLDQDGFFKIIQKAFETLTDSNKRAQYDSSDFVADVPPPKKGTDYDFYEAWGPVFEAEARFSKKTPIPSLGNKDSSKKEVEQFYAFWHRFDSWRTFEFLDEDVPDDSSNRDHKRYIERKNKAARDKKKTADNARLVKLVERAVSEDPRIKMFKEEEKKEKERRKWEREAGARAEAEAKAKAEAEAKAKAESEAKANASAKADKKKAKEAAKAACKKNKRAIRNSAKEADYFGDADKATTIDEQVGLIVDSLNDEELVSTADKIKANAAGAKEVLKESAKCIVDSGKLPSSLLSYFV
binds	Zuo1 C167S K363C (protein, UniProt P32527 1-433) MFSLPTLTSDITVEVNSSATKTPFVRRPVEPVGKFFLQHAQRTLRNHTWSEFERIEAEKNVKTVDESNVDPDELLFDTELADEDLLTHDARDWKTADLYAAMGLSKLRFRATESQIIKAHRKQVVKYHPDKQSAAGGSLDQDGFFKIIQKAFETLTDSNKRAQYDSSDFVADVPPPKKGTDYDFYEAWGPVFEAEARFSKKTPIPSLGNKDSSKKEVEQFYAFWHRFDSWRTFEFLDEDVPDDSSNRDHKRYIERKNKAARDKKKTADNARLVKLVERAVSEDPRIKMFKEEEKKEKERRKWEREAGARAEAEAKAKAEAEAKAKAESEAKANASAKADKKKAKEAAKAAKKKNKRAIRNSACEADYFGDADKATTIDEQVGLIVDSLNDEELVSTADKIKANAAGAKEVLKESAKTIVDSGKLPSSLLSYFV
binds	Zuo1 C167S S328C K351C (protein, UniProt P32527 1-433) MFSLPTLTSDITVEVNSSATKTPFVRRPVEPVGKFFLQHAQRTLRNHTWSEFERIEAEKNVKTVDESNVDPDELLFDTELADEDLLTHDARDWKTADLYAAMGLSKLRFRATESQIIKAHRKQVVKYHPDKQSAAGGSLDQDGFFKIIQKAFETLTDSNKRAQYDSSDFVADVPPPKKGTDYDFYEAWGPVFEAEARFSKKTPIPSLGNKDSSKKEVEQFYAFWHRFDSWRTFEFLDEDVPDDSSNRDHKRYIERKNKAARDKKKTADNARLVKLVERAVSEDPRIKMFKEEEKKEKERRKWEREAGARAEAEAKAKAEAEAKAKAECEAKANASAKADKKKAKEAAKAACKKNKRAIRNSAKEADYFGDADKATTIDEQVGLIVDSLNDEELVSTADKIKANAAGAKEVLKESAKTIVDSGKLPSSLLSYFV
binds	Zuo1 C167S K337C K351C (protein, UniProt P32527 1-433) MFSLPTLTSDITVEVNSSATKTPFVRRPVEPVGKFFLQHAQRTLRNHTWSEFERIEAEKNVKTVDESNVDPDELLFDTELADEDLLTHDARDWKTADLYAAMGLSKLRFRATESQIIKAHRKQVVKYHPDKQSAAGGSLDQDGFFKIIQKAFETLTDSNKRAQYDSSDFVADVPPPKKGTDYDFYEAWGPVFEAEARFSKKTPIPSLGNKDSSKKEVEQFYAFWHRFDSWRTFEFLDEDVPDDSSNRDHKRYIERKNKAARDKKKTADNARLVKLVERAVSEDPRIKMFKEEEKKEKERRKWEREAGARAEAEAKAKAEAEAKAKAESEAKANASACADKKKAKEAAKAACKKNKRAIRNSAKEADYFGDADKATTIDEQVGLIVDSLNDEELVSTADKIKANAAGAKEVLKESAKTIVDSGKLPSSLLSYFV
binds	Zuo1 C167S S335C K351C (protein, UniProt P32527 1-433) MFSLPTLTSDITVEVNSSATKTPFVRRPVEPVGKFFLQHAQRTLRNHTWSEFERIEAEKNVKTVDESNVDPDELLFDTELADEDLLTHDARDWKTADLYAAMGLSKLRFRATESQIIKAHRKQVVKYHPDKQSAAGGSLDQDGFFKIIQKAFETLTDSNKRAQYDSSDFVADVPPPKKGTDYDFYEAWGPVFEAEARFSKKTPIPSLGNKDSSKKEVEQFYAFWHRFDSWRTFEFLDEDVPDDSSNRDHKRYIERKNKAARDKKKTADNARLVKLVERAVSEDPRIKMFKEEEKKEKERRKWEREAGARAEAEAKAKAEAEAKAKAESEAKANACAKADKKKAKEAAKAACKKNKRAIRNSAKEADYFGDADKATTIDEQVGLIVDSLNDEELVSTADKIKANAAGAKEVLKESAKTIVDSGKLPSSLLSYFV
binds	Zuo1 C167S K351C (protein, UniProt P32527 1-433) MFSLPTLTSDITVEVNSSATKTPFVRRPVEPVGKFFLQHAQRTLRNHTWSEFERIEAEKNVKTVDESNVDPDELLFDTELADEDLLTHDARDWKTADLYAAMGLSKLRFRATESQIIKAHRKQVVKYHPDKQSAAGGSLDQDGFFKIIQKAFETLTDSNKRAQYDSSDFVADVPPPKKGTDYDFYEAWGPVFEAEARFSKKTPIPSLGNKDSSKKEVEQFYAFWHRFDSWRTFEFLDEDVPDDSSNRDHKRYIERKNKAARDKKKTADNARLVKLVERAVSEDPRIKMFKEEEKKEKERRKWEREAGARAEAEAKAKAEAEAKAKAESEAKANASAKADKKKAKEAAKAACKKNKRAIRNSAKEADYFGDADKATTIDEQVGLIVDSLNDEELVSTADKIKANAAGAKEVLKESAKTIVDSGKLPSSLLSYFV
binds	Zuo1 C167S K351C K363C (protein, UniProt P32527 1-433) MFSLPTLTSDITVEVNSSATKTPFVRRPVEPVGKFFLQHAQRTLRNHTWSEFERIEAEKNVKTVDESNVDPDELLFDTELADEDLLTHDARDWKTADLYAAMGLSKLRFRATESQIIKAHRKQVVKYHPDKQSAAGGSLDQDGFFKIIQKAFETLTDSNKRAQYDSSDFVADVPPPKKGTDYDFYEAWGPVFEAEARFSKKTPIPSLGNKDSSKKEVEQFYAFWHRFDSWRTFEFLDEDVPDDSSNRDHKRYIERKNKAARDKKKTADNARLVKLVERAVSEDPRIKMFKEEEKKEKERRKWEREAGARAEAEAKAKAEAEAKAKAESEAKANASAKADKKKAKEAAKAACKKNKRAIRNSACEADYFGDADKATTIDEQVGLIVDSLNDEELVSTADKIKANAAGAKEVLKESAKTIVDSGKLPSSLLSYFV
binds	Zuo1 C167S K363C T417C (protein, UniProt P32527 1-433) MFSLPTLTSDITVEVNSSATKTPFVRRPVEPVGKFFLQHAQRTLRNHTWSEFERIEAEKNVKTVDESNVDPDELLFDTELADEDLLTHDARDWKTADLYAAMGLSKLRFRATESQIIKAHRKQVVKYHPDKQSAAGGSLDQDGFFKIIQKAFETLTDSNKRAQYDSSDFVADVPPPKKGTDYDFYEAWGPVFEAEARFSKKTPIPSLGNKDSSKKEVEQFYAFWHRFDSWRTFEFLDEDVPDDSSNRDHKRYIERKNKAARDKKKTADNARLVKLVERAVSEDPRIKMFKEEEKKEKERRKWEREAGARAEAEAKAKAEAEAKAKAESEAKANASAKADKKKAKEAAKAAKKKNKRAIRNSACEADYFGDADKATTIDEQVGLIVDSLNDEELVSTADKIKANAAGAKEVLKESAKCIVDSGKLPSSLLSYFV
binds	Zuo1 C167S K363C S395C (protein, UniProt P32527 1-433) MFSLPTLTSDITVEVNSSATKTPFVRRPVEPVGKFFLQHAQRTLRNHTWSEFERIEAEKNVKTVDESNVDPDELLFDTELADEDLLTHDARDWKTADLYAAMGLSKLRFRATESQIIKAHRKQVVKYHPDKQSAAGGSLDQDGFFKIIQKAFETLTDSNKRAQYDSSDFVADVPPPKKGTDYDFYEAWGPVFEAEARFSKKTPIPSLGNKDSSKKEVEQFYAFWHRFDSWRTFEFLDEDVPDDSSNRDHKRYIERKNKAARDKKKTADNARLVKLVERAVSEDPRIKMFKEEEKKEKERRKWEREAGARAEAEAKAKAEAEAKAKAESEAKANASAKADKKKAKEAAKAAKKKNKRAIRNSACEADYFGDADKATTIDEQVGLIVDSLNDEELVCTADKIKANAAGAKEVLKESAKTIVDSGKLPSSLLSYFV
